Measurements taken from paper doi:10.1101/2023.07.20.549862.
Results are given in words; binding and its absence hold for the method and conditions named. Binding seen in cells or lysates may run through a third protein. Binding can be weak; no strength is given.

Biological target: Xenopus laevis PP1c (XePP1c) (Xenopus laevis (endogenous in oocytes)) (UniProt P36874)
Assay: co-IP

HA-tagged PbRpt3 protein (translated from cRNA in Xenopus oocytes) (from UniProt A0A509AIQ8)
binding: binds
